Measured values from patent US9470680B2, “Fluorescence-based approach to monitor release factor-catalyzed termination of protein synthesis” (THE TRUSTEES OF COLUMBIA UNIVERSITY IN THE CITY OF NEW YORK, priority 2011, dated 2016).
Some of these results come from one statement about several compounds together.

System: RCs carrying fMet-[14C]Phe-tRNAPhe in the P site and a stop codon (UAA) at the A site
Assay: RF1 peptide release activity assay ([14C]-dipeptide release from RCs)
Type: biochemical, Escherichia coli
Details: single-round dipeptide release, excess RF3 without guanine nucleotide, 1 minute at 37° C.

## RF1: Escherichia coli class 1 release factor 1, purified, co-expressed with PrmC methyltransferase
  Percent activities (amount of dipeptide released divided by the amount of RF1 in the reaction): 30-40%
